Record: PubChem BioAssay AID504774 (Drosophila RNAi Screening Center, 2011)
Aim: 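Fly genes whose loss alters survival after alkylation damage to DNA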 (primary screen). Cells: Drosophila Kc167 cells. Reagent: long dsRNA against Drosophila genes, about 0.25 µg dsRNA per well. Time to read-out: about 6 days: 3 days knock-down, then 3 days with or without MMS. Challenge: methyl methanesulphonate 0.004% (w/v) for 3 days after knock-down. Read-out: 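Viability in wells given MMS, read as ATP luminescence, normalised by quantiles plate by plate and averaged across replicates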. Reading the numbers: mean viability with MMS and viability with MMS: higher = more surviving cells after MMS.
In all, the deposit lists about 23,000 reagents; this is an unselected part of those with a known target gene and a result. 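Values are quantile-normalised luminescence on an arbitrary scale; higher means more cells surviving MMS.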 Reagents against one gene are numbered here. Names joined by + are all predicted targets of the reagent. No sequences are given here.

Gene | reagent | mean viability with MMS | viability with MMS, replicate 1 | viability with MMS, replicate 2
SerT | 1 | 3.64e6 | 4.20e6 | 4.05e6
CG30460 | 1 | 3.53e6 | 4.14e6 | 3.87e6
CG30460 | 2 | 2.83e6 | 3.52e6 | 3.52e6
CG30460 | 3 | 3.75e6 | 4.32e6 | 4.19e6
ATPsynC | 1 | 3.43e6 | 3.82e6 | 3.96e6
CG1428 | 1 | 3.54e6 | 4.10e6 | 3.91e6
Lcp2 | 1 | 3.44e6 | 3.96e6 | 3.87e6
Orc6 | 1 | 3.52e6 | 4.00e6 | 3.99e6
CG1792 | 1 | 3.61e6 | 4.09e6 | 4.09e6
CG31142 | 1 | 3.31e6 | 3.76e6 | 3.76e6
CTCF | 1 | 3.43e6 | 3.99e6 | 3.79e6
pigs | 1 | 3.59e6 | 4.04e6 | 4.07e6
pigs | 2 | 3.55e6 | 3.87e6 | 4.18e6
pigs | 3 | 3.58e6 | 3.92e6 | 4.22e6
CG13813 | 1 | 3.43e6 | 4.07e6 | 3.69e6
CG14154 | 1 | 3.46e6 | 3.98e6 | 3.87e6
CG34266 | 1 | 3.54e6 | 3.91e6 | 4.13e6
Noa36 | 1 | 3.58e6 | 3.99e6 | 4.13e6
Fad2 | 1 | 3.30e6 | 3.64e6 | 3.77e6
Jhbp6 | 1 | 3.37e6 | 3.72e6 | 3.86e6
CG10472 | 1 | 3.71e6 | 4.26e6 | 4.17e6
Vps13B | 1 | 3.52e6 | 4.00e6 | 3.96e6
CG1674 | 1 | 3.65e6 | 4.10e6 | 4.16e6
CG9445 | 1 | 3.68e6 | 4.21e6 | 4.04e6
CG7991 | 1 | 3.63e6 | 4.09e6 | 4.10e6
CG5001 | 1 | 3.57e6 | 4.00e6 | 4.11e6
CG10254 | 1 | 3.32e6 | 3.82e6 | 3.73e6
CG5623 | 1 | 3.60e6 | 4.18e6 | 4.01e6
fj | 1 | 3.62e6 | 4.08e6 | 4.11e6
Sf3b5 | 1 | 3.19e6 | 3.71e6 | 3.68e6
Ir76b | 1 | 3.64e6 | 4.15e6 | 4.08e6
CG1105 | 1 | 3.43e6 | 3.88e6 | 3.84e6
Lasp | 1 | 3.41e6 | 3.84e6 | 3.86e6
Acp53C14a | 1 | 3.49e6 | 4.03e6 | 3.88e6
wech | 1 | 3.09e6 | 2.15e6 | 3.74e6
MtnA | 1 | 3.72e6 | 4.12e6 | 4.27e6
CG32160 (retired record) | 1 | 3.57e6 | 4.05e6 | 4.01e6
l(2)05287 | 1 | 3.25e6 | 3.57e6 | 3.62e6
l(2)05287 | 2 | 3.38e6 | 3.82e6 | 3.79e6
CG13527 | 1 | 3.61e6 | 4.11e6 | 4.09e6
CG42726 + CG42727 | 1 | 3.47e6 | 3.89e6 | 3.95e6
CG5539 | 1 | 3.49e6 | 3.82e6 | 4.09e6
CG4669 | 1 | 3.49e6 | 3.93e6 | 3.97e6
CG12384 | 1 | 3.84e6 | 4.40e6 | 4.23e6
CG31638 | 1 | 3.31e6 | 3.79e6 | 3.63e6
CG31638 | 2 | 3.41e6 | 3.88e6 | 3.82e6
CG8630 | 1 | 3.40e6 | 3.79e6 | 3.89e6
l(3)87Df | 1 | 3.61e6 | 3.95e6 | 4.27e6
CR18166 | 1 | 3.61e6 | 4.06e6 | 4.08e6
CR18166 | 2 | 3.54e6 | 3.88e6 | 4.16e6
CG5597 | 1 | 3.53e6 | 4.21e6 | 4.08e6
CG15715 | 1 | 3.49e6 | 4.00e6 | 3.88e6
Hmbs | 1 | 3.61e6 | 4.09e6 | 4.11e6
CG8299 | 1 | 3.47e6 | 3.98e6 | 3.87e6
bora | 1 | 3.48e6 | 3.96e6 | 3.93e6
Rae1 | 1 | 3.25e6 | 3.62e6 | 3.56e6
CG9993 | 1 | 3.54e6 | 4.05e6 | 3.97e6
CR42785 | 1 | 3.80e6 | 4.49e6 | 4.14e6
CG14326 | 1 | 3.24e6 | 3.75e6 | 3.56e6
qin | 1 | 3.48e6 | 4.06e6 | 3.85e6
Cpr66Cb | 1 | 3.56e6 | 3.97e6 | 4.12e6
128up | 1 | 3.49e6 | 4.02e6 | 3.86e6
CG32846 | 1 | 3.55e6 | 4.10e6 | 3.95e6
Cyp6a13 | 1 | 3.50e6 | 3.99e6 | 3.92e6
Lcp9 | 1 | 3.41e6 | 3.95e6 | 3.75e6
jub | 1 | 3.45e6 | 3.82e6 | 4.04e6
CG13659 | 1 | 3.50e6 | 3.99e6 | 3.91e6
Rab18 | 1 | 3.70e6 | 4.28e6 | 4.17e6

Already shown: an excerpt of the list.
Gene | reagent | mean viability with MMS | viability with MMS, replicate 1 | viability with MMS, replicate 2
MtnA | 1 | 3.72e6 | 4.12e6 | 4.27e6
CG32160 (retired record) | 1 | 3.57e6 | 4.05e6 | 4.01e6
l(2)05287 | 1 | 3.25e6 | 3.57e6 | 3.62e6
l(2)05287 | 2 | 3.38e6 | 3.82e6 | 3.79e6
CG13527 | 1 | 3.61e6 | 4.11e6 | 4.09e6
